Patent publication US20200230168

Key:
hSSB1 (Homo sapiens) = hSSB1 (Homo sapiens) (UniProt Q9BQ15); assay: SPR; conditions: purified recombinant protein
THOC4 (ALYREF) = THOC4 (ALYREF) (Homo sapiens?) (UniProt Q86V81); assay: SPR; conditions: purified recombinant protein, counted as no binding
hSSB2 (Homo sapiens) = hSSB2 (Homo sapiens) (UniProt Q96AH0); assay: EMSA; conditions: 2'-OMe all, PS all; Tris pH 7.5, 100 mM KCl, 1 mM EDTA, 37C; single EMSA; purified recombinant protein; label: FAM
[1] = gapmer: 2'-OMe PS wings (5 nt each), central unmodified, LSA_In3E3 = 1, variant of LSA_ATG
[2] = gapmer: 2'-OMe PS wings (5 nt each), central unmodified DNA, LSA_In3E3 = 1, variant of LSA_In3E3
[3] = gapmer, 2'-OMe PS wings, unmodified DNA middle, counted as no binding
[4] = gapmer, 2'-OMe PS wings, unmodified DNA middle
[5] = 2'-OMe and PS except around T8 as printed

CACGUACCUUAGUGCCUCAC [Open_L ZEN (DKLS665920)]
binding signal (normalized Rmax) (hSSB1 (Homo sapiens); 2'-OMe all, ZEN at both ends, counted as no binding): 0.07

CAGAGGCAGCAGTACGACGG [LSA_ATG gapmer (DKLS292688)]
binding signal (normalized Rmax) (hSSB1 (Homo sapiens); [1]): 0.2
binding signal (normalized Rmax) (THOC4 (ALYREF); [1]): 0

CAGAGGCAGCAGUACGACGG [LSA_ATG 2'-OMe PD (DKLS459014)]
binding signal (normalized Rmax) (hSSB1 (Homo sapiens); 2'-OMe all, phosphodiester, LSA_In3E3 = 1, variant of LSA_ATG, counted as no binding): 0.1
binding signal (normalized Rmax) (THOC4 (ALYREF); 2'-OMe all, phosphodiester, LSA_In3E3 = 1, variant of LSA_ATG): -0.02

CAGAGGCAGCAGUACGACGG [LSA_ATG 2'-OMe PS ends (DKLS286198)]
binding signal (normalized Rmax) (THOC4 (ALYREF); 2'-OMe all, PS three at each end, LSA_In3E3 = 1, variant of LSA_ATG): -0.02

CAGAGGCAGCAGUACGACGG [LSA_ATG ZEN (DKLS649218)]
binding signal (normalized Rmax) (THOC4 (ALYREF); 2'-OMe all, ZEN at both ends): -0.09

CAGAGGCAGCAGUACGACGG [LSA_ATG unmodified PD (DKLS858330)]
binding signal (normalized Rmax) (hSSB1 (Homo sapiens); none, phosphodiester, LSA_In3E3 = 1, variant of LSA_ATG, counted as no binding): 0.03
binding signal (normalized Rmax) (THOC4 (ALYREF); none, phosphodiester, LSA_In3E3 = 1, variant of LSA_ATG): 0.04

CCAGUGAGCCGGACTUGCCU [In3LSA_GAP]
binding signal (normalized Rmax) (hSSB1 (Homo sapiens); [2]): 0.55
binding signal (normalized Rmax) (THOC4 (ALYREF); [2]): -0.1

CCAGUGAGCCGGACUUGCCU [In3E3 2'-OMe PD (DKLS644620)]
binding signal (normalized Rmax) (hSSB1 (Homo sapiens); 2'-OMe all, phosphodiester, LSA_In3E3 = 1, variant of LSA_In3E3, counted as no binding): 0.03
binding signal (normalized Rmax) (THOC4 (ALYREF); 2'-OMe all, phosphodiester, LSA_In3E3 = 1, variant of LSA_In3E3): -0.14

CCAGUGAGCCGGACUUGCCU [In3E3 2'-OMe PS ends (DKLS621499)]
binding signal (normalized Rmax) (THOC4 (ALYREF); 2'-OMe all, PS three at each end, LSA_In3E3 = 1, variant of LSA_In3E3): -0.13

CCAGUGAGCCGGACUUGCCU [In3E3 ZEN (DKLS991101)]
binding signal (normalized Rmax) (THOC4 (ALYREF); 2'-OMe all, phosphodiester, ZEN at both ends, LSA_In3E3 = 1, variant of LSA_In3E3): -0.13

CCAGUGAGCCGGACUUGCCU [In3E3 unmodified PD (DKLS300878)]
binding signal (normalized Rmax) (hSSB1 (Homo sapiens); none, phosphodiester, LSA_In3E3 = 1, variant of LSA_In3E3, counted as no binding): 0.03
binding signal (normalized Rmax) (THOC4 (ALYREF); none, phosphodiester, LSA_In3E3 = 1, variant of LSA_In3E3): -0.05

CCAUCTGTAATTACAAAAUUAAA [DKLS656574 (SEQ 19)]
binding signal (normalized Rmax) (hSSB1 (Homo sapiens); [3]): -0.03
binding signal (normalized Rmax) (THOC4 (ALYREF); [4]): 0.01

CGCGUCACTCGCACTCGCCU [In3E3_CT5 gapmer (DKLS415889)]
binding signal (normalized Rmax) (hSSB1 (Homo sapiens); [3]): 0.05
binding signal (normalized Rmax) (THOC4 (ALYREF); [4]): -0.16

CUCAUTCCTACCGACACCCC [NEG_C_GAP (DKLS848880)]
binding signal (normalized Rmax) (hSSB1 (Homo sapiens); [4]): 0.56
binding signal (normalized Rmax) (THOC4 (ALYREF); [4]): -0.1

CUCAUUCCUACCGACACCCC [Neg_C]
binding result (hSSB2 (Homo sapiens)): binds more weakly

CUGCCTAAGTAAAAAGTGUAAAC [DKLS934835 (SEQ 18)]
binding signal (normalized Rmax) (hSSB1 (Homo sapiens); [3]): -0.14
binding signal (normalized Rmax) (THOC4 (ALYREF); [4]): 0

GAGGAACTCCGCCGC [DKLS474224 (SEQ 24)]
binding signal (normalized Rmax) (hSSB1 (Homo sapiens); [5]): 0.23
binding signal (normalized Rmax) (THOC4 (ALYREF); [5]): 0.14

GAGUAAACATTCTGTGTGGAGUC [DKLS799151 (SEQ 20)]
binding signal (normalized Rmax) (hSSB1 (Homo sapiens); [3]): 0.12
binding signal (normalized Rmax) (THOC4 (ALYREF); [4]): 0.02

GUCUCCGTCGTCATGCUGCC [ASO_ATG gapmer (DKLS426564)]
binding signal (normalized Rmax) (hSSB1 (Homo sapiens); [4]): 0.16
binding signal (normalized Rmax) (THOC4 (ALYREF); [4]): -0.03

GUGCAUGGAAUCACGGAGUG [Open_A 2'-OMe PD (DKLS934835)]
binding signal (normalized Rmax) (hSSB1 (Homo sapiens); 2'-OMe all, phosphodiester, LSA_In3E3 = 1, variant of Open_A_1, counted as no binding): -0.03
binding signal (normalized Rmax) (THOC4 (ALYREF); 2'-OMe all, phosphodiester, LSA_In3E3 = 1, variant of Open_A_1): 0

GUGCAUGGAAUCACGGAGUG [Open_A ZEN (DKLS651753)]
binding signal (normalized Rmax) (hSSB1 (Homo sapiens); 2'-OMe all, phosphodiester, ZEN at both ends, LSA_In3E3 = 1, variant of Open_A_1, counted as no binding): 0.07
binding signal (normalized Rmax) (THOC4 (ALYREF); 2'-OMe all, phosphodiester, ZEN at both ends, LSA_In3E3 = 1, variant of Open_A_1): -0.12

For part of these data: The comparison behind a weaker result is the experiment's own reference, which may not be listed here. For part of these data: For at least one entry, the source does not settle the construct or the ends of the probe. For part of these data: The direction of at least one scale is not stated here.
